The values that follow come from article doi:10.1101/2023.09.13.557651v1 (biorxiv, 2023).

This data set concerns RcDT1. The data set is described as follows: inhibition of DHNA prenylation by yeast microsomes, UPLC. It counts as biochemical, Rubia cordifolia. Particulars: DMAPP, Mg2+, inhibitor at same concentration as substrate.

Consider `Oc1ccc2ccccc2c1O` [compound 27, 1,2-DHN], for which the “% activity of control at inhibitor concentration equal to substrate” value is listed as 0%. As to `Oc1ccc(O)c2ccccc12` [compound 8, 1,4-dihydroxynaphthalene], the “% activity of control at inhibitor concentration equal to substrate” value was found to be 5.7%.
